## Library screening results

Protein sequences, listed by entry. Tags and fused reporters are not part of them.
UniProt E9BF75, entry or part of it: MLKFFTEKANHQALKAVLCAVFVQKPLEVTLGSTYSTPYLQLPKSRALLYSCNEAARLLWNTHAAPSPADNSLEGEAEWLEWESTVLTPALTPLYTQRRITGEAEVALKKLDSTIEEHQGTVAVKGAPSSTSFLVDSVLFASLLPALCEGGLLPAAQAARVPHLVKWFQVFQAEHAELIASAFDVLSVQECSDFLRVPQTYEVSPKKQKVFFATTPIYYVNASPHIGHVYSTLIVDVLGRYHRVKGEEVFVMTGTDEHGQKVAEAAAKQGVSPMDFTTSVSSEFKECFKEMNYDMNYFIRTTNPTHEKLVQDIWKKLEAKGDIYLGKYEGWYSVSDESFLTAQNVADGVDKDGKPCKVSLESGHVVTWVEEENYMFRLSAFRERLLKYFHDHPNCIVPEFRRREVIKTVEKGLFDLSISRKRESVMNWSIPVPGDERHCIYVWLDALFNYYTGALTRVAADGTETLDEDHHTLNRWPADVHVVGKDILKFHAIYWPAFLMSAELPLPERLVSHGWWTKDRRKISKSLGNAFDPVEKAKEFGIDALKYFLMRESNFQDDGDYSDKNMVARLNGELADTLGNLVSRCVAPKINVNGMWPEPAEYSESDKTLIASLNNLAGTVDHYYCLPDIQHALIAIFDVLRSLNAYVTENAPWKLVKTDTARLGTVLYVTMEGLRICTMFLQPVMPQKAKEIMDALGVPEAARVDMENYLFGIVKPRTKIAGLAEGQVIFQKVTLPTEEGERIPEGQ

Mtb heat-shock: 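Assay on Mycobacterium tuberculosis, filed only as a heat shock assay from Cornell; the read-out is not stated. The concentration is filed as 10 mM, unlikely as a test dose, so the dose is not known. Direction is inferred from retests: higher values go with stronger inhibition. About 69,000 compounds were tested under these conditions; 1.4% (about 930) showed 50% or more at least once.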
Mtb growth Cornell: 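Whole-cell assay for inhibitors of Mycobacterium tuberculosis growth, labelled Cornell in the record; the read-out is not stated. The concentration is filed as 10 mM, unlikely as a test dose, so the dose is not known. The record gives no direction; compounds strong in two other growth screens of this library score well above the rest, so higher reads as stronger inhibition. Size under these conditions: about 53,000 compounds, about 900 of them at 50% or above in at least one test.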
LdMetRS: 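Methionyl-tRNA synthetase (putative), Leishmania donovani (UniProt E9BF75). Primary screen of methionyl-tRNA synthetase; the read-out is not stated. The test concentration is not given. The values are filed as inhibition. About 68,000 compounds were tested under these conditions; 0.035% (about 24) showed 50% or more at least once.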

All values are in %.
The record does not define 0% and 100%; most values in the screen are far below 50% and negative numbers occur (in some assays of this library far below -100).
This is an unselected part of the compounds tested.
A dash means the value is not listed here; it may have been measured.

| structure | Mtb heat-shock | Mtb growth Cornell | LdMetRS |
|---|---|---|---|
| `CCC[C@@H](NC(N)=O)C(=O)N1Cc2ccccc2-c2ccccc2C1` | -18.12 | - | 10.68 |
| `Cn1cc(CN2CCC(F)(F)C3(CCN(c4cnccn4)C3)C2)cn1.O=C(O)C(F)(F)F.O=C(O)C(F)(F)F` (centres undefined) | 3.354 | -12.22 | - |
| `COc1ccc(C(=O)N2CCC(Oc3ccccc3C)(C(=O)O)CC2)o1` | -15.54 | -16.31 | 17.01 |
| `COCCN1CCC(CNC(=O)C2(S(C)(=O)=O)CCCC2)CC1` | -18.46 | - | 5.801 |
| `Cc1cc(C)nc(CN(C)C(=O)c2cccc(CCC(C)(C)O)c2)c1` | -1.737 | 11.37 | 12.85 |
| `Cc1ccn(CCNC(=O)C2CCN(S(=O)(=O)c3ccc(F)cc3)C2)n1` (centres undefined) | -5.467 | -6.425 | 2.581 |
| `Cl.Nc1ccc(-c2cnc(C3CCCN3)cn2)cn1` (centres undefined) | -15.7 | 8.25 | - |
| `CC(C)NC(=O)CCN1CCCC1c1cccc2c1OCCO2` (centres undefined) | -11.35 | 5.576 | 19.63 |
| `Cc1cn[nH]c1C1CCCN1Cc1ccc(F)c(F)c1` (centres undefined) | 13.45 | -26.41 | 26.35 |
| `N#Cc1cccnc1OC1CCN(S(=O)(=O)c2c(F)cccc2F)CC1` | -6.765 | -16.23 | 13.24 |
| `NC(=O)c1ccc(NC2CCOC3(CCCC3)C2)nn1` (centres undefined) | -26.81 | -13.44 | -1.397 |
| `Cc1nc(CN2CCc3ncnc(C)c3CC2)cs1.O=C(O)C(F)(F)F` | 2.444 | 16.15 | - |
| `COCC(=O)N1CCN(Cn2nc(C)c(Br)c2C)CC1` | -1.426 | 22.23 | 19 |
| `CCc1ccc(CN2CCOC(Cc3cccc(F)c3)C2)nc1` (centres undefined) | 28.76 | - | 8.683 |
| `Cc1cnn(CCNCc2ccc(OCc3ccncc3)cc2)c1` | 22.21 | -5.152 | 26.65 |
| `CC(=O)Nc1cc(C(C)(C)C)sc1C#N` | 1.534 | -21.78 | 14.08 |
| `CCC(=O)c1ccc(OCC(=O)NC(C)c2nnn[nH]2)cc1` (centres undefined) | -10.13 | -41.21 | 6.72 |
| `O=C(c1ncccn1)N1C[C@H]2CCC[C@@]2(COCc2cccnc2)C1` | - | - | -2.146 |
| `CCCNC(=O)NCc1nc(C)c(C)o1` | -31.46 | - | - |
| `Cc1cc(C)c(CNc2cnn(CC(O)CN(C)C)c2)c(C)c1` (centres undefined) | 0.4619 | 19.65 | 10.79 |
| `FC1(F)CCN(Cc2ccccn2)CC12CCN(c1cccnc1)C2` (centres undefined) | - | - | 3.03 |
| `COCCOc1ccnc(-c2noc([C@@H]3CCCN3CC(C)(C)C)n2)c1` | 0.527 | -8.199 | -5.085 |
| `Cc1noc(C(C)C)c1C(=O)NS(=O)(=O)c1ccc(Cl)cc1` | 8.571 | 78.7 | 20.42 |
| `NC(=O)c1ccc(CN2CCCC(N3CCCCCC3)C2)cc1` (centres undefined) | -43.62 | 7.495 | 15.53 |
| `O=C(Nc1cccnc1)NC(CCCO)c1ccccc1` (centres undefined) | 8.976 | -7.73 | 12.11 |
| `CN(C)CC(=O)NC1CC(C)(C)Cc2nc(C(C)(C)C)ncc21` (centres undefined) | -7.324 | -19.51 | 12.38 |
| `Cc1nc(C2CCCN2C(=O)c2cc3c(s2)CCC3)no1` (centres undefined) | -0.2393 | - | 8.939 |
| `Cc1nnc(SCCNC(=O)c2cc(S(N)(=O)=O)ccc2F)s1` | -27.4 | - | 9.041 |
| `CNC(=O)c1sccc1N(C)S(=O)(=O)c1ccc(Cl)cc1` | 9.878 | -17.51 | -1.133 |
| `N#Cc1ccccc1CN1CCC(c2nccn2CC2CCC2)CC1` | -2.219 | 7.334 | 5.389 |
| `CN1CC(=O)N(c2ccsc2)CC12CCN(S(C)(=O)=O)C2.O=C(O)C(F)(F)F` (centres undefined) | -3.171 | 17.6 | - |
| `COc1ccc(-n2cccn2)c(CN2CCC3(CCCN(C)C3=O)C2)c1` (centres undefined) | -0.5098 | - | 14.21 |
| `[H][C@]12CC(Cn3cccn3)N(C)[C@@]1([H])CCN(Cc1nccs1)C2` (some centres undefined) | -6.079 | - | - |
| `O[C@]12CCNC[C@H]1CN(c1ccnc3ccccc13)CC2` | - | - | 2.538 |
| `Cc1nc2ccccn2c1CC(=O)N[C@@H]1CCC[C@@H](N2CCCC2)[C@@H]1O` | -9.039 | 11.36 | 17.36 |
| `Cn1cc(S(=O)(=O)NCC2CCN(C(=O)c3ccoc3)CC2)cn1` | 0.5016 | -1.8 | 8.696 |
| `Cc1ccccc1C(=O)NC1CCN(Cc2ncc(C(C)(C)C)o2)CC1` | -1.936 | 4.089 | 9.582 |
| `Cc1cc(C(=O)NCc2ccco2)nn1C` | 12.62 | - | 24.87 |
| `CC(=O)N1CCCN(C(=O)NC(C)c2csc3ccccc23)CC1` (centres undefined) | -0.542 | - | 16.54 |
| `Cc1cc(C(=O)N2CCc3nc(C4CCCCN4)ncc3C2)cs1` (centres undefined) | - | - | 16.08 |
| `O=C(c1ccco1)N1CCO[C@@H]2CN(CC3CC3)CC[C@@H]2C1` | - | - | 10.95 |
| `Cc1nc(N(C)C)ncc1C(=O)NCCc1csc(-c2ccncc2)n1` | 20.37 | -5.711 | 6.529 |
| `[H][C@]12CC[C@]([H])(CN(Cc3ccccc3)C1)N(C(=O)OCC)C2` | 26 | - | - |
| `Cc1ccc(C(=O)N2CCN(c3ncnc4nc(N)ccc34)CC2)cc1` | 4.027 | 34.84 | 16.4 |
| `CNc1ncc(CN(C)Cc2cc(O)c3cc(F)ccc3n2)cn1` | -1.201 | -1.677 | 17.13 |
| `CC(=O)N1CCCC2(C1)CN(C(=O)C1CCCCC1)CCO2` (centres undefined) | -14.73 | - | -0.5556 |
| `O=C(CN1CCC(c2ccnn2CCO)CC1)NCC1CCCCC1` | -6.339 | - | 19.44 |
| `Cn1ncc2c1C(COCC1CC1)CN(c1ncc(F)cn1)C2` (centres undefined) | 25.6 | 15.95 | 0 |
| `CCCc1nn(C2CCN(C(C)C)C2=O)c(=O)o1` (centres undefined) | -21.14 | -6.759 | 5.108 |
| `O=C(CC1=CCCCC1)Nc1ncn(CC(=O)N2CCCCCC2)n1` | 17.3 | - | 4.737 |
| `COCCOCC(=O)Nc1ccc(F)cc1C` | 6.048 | -7.999 | 9.577 |
| `O=C(NCc1nc2ccccc2[nH]1)c1cc2n(n1)CCCO2` | -1.216 | 26.84 | 14.39 |

Once more, the final 4:

| structure | Mtb heat-shock | Mtb growth Cornell | LdMetRS |
|---|---|---|---|
| `CCCc1nn(C2CCN(C(C)C)C2=O)c(=O)o1` (centres undefined) | -21.14 | -6.759 | 5.108 |
| `O=C(CC1=CCCCC1)Nc1ncn(CC(=O)N2CCCCCC2)n1` | 17.3 | - | 4.737 |
| `COCCOCC(=O)Nc1ccc(F)cc1C` | 6.048 | -7.999 | 9.577 |
| `O=C(NCc1nc2ccccc2[nH]1)c1cc2n(n1)CCCO2` | -1.216 | 26.84 | 14.39 |

The values are deposited in ChEMBL (CHEMBL3988442, “University of Dundee, Small-Polar-MMV Screening Library” (2021)).